{"source": "PubChem BioAssay AID652243 (Drosophila RNAi Screening Center, 2013)", "aim": "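Fly genes required for human androgen receptor driven transcription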 (primary screen)", "cell system": "Drosophila S2R+ cells", "reagent": "long dsRNA against Drosophila genes", "time to read-out": "72 h (48 h, then 24 h hormone)", "conditions": "synthetic androgen R1881 at 10 nM for 24 h", "read-out": "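Firefly light from an androgen-responsive reporter and Renilla control light per well, raw and unnormalised, for each of two replicates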", "direction": "firefly reporter light: higher = more light from androgen-responsive reporter; Renilla control light: higher = more constitutive control signal (cell number, transfection)", "rule for the call": "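Across duplicate plates, a knock-down whose log firefly/Renilla ratio shifted a set fold down or up from the GFP/LacZ control mean was a hit; the downward cut appears as both 1.5 and 3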", "calls": "active = hit: reporter lowered or raised; inactive = no hit", "note": "The deposit covers about 24,000 reagents; this is an unselected part of those with a known target gene and a result. Of all reagents, 246 (1%) got an active call. 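Plates not normalised; calls are printed but the firefly/Renilla ratio behind them is not deposited; fold cut for lowering reported inconsistently.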 Raw values are not corrected between plates. Entries without a mark were called inactive. Reagents against one gene are numbered here. The record does not give: the amount of reagent."}
{"target":"mei-W68","dsRNA no.":1,"firefly reporter light, replicate 1":45979,"firefly reporter light, replicate 2":98908,"Renilla control light, replicate 1":4.62e5,"Renilla control light, replicate 2":8.97e5}
{"target":"CG42367","dsRNA no.":1,"firefly reporter light, replicate 1":6.46e5,"firefly reporter light, replicate 2":6.40e5,"Renilla control light, replicate 1":2.49e6,"Renilla control light, replicate 2":1.88e6}
{"target":"CG42367","dsRNA no.":2,"firefly reporter light, replicate 1":6.20e5,"firefly reporter light, replicate 2":5.15e5,"Renilla control light, replicate 1":4.79e5,"Renilla control light, replicate 2":5.56e5}
{"target":"CG16852","dsRNA no.":1,"firefly reporter light, replicate 1":3.19e5,"firefly reporter light, replicate 2":3.10e5,"Renilla control light, replicate 1":1.45e6,"Renilla control light, replicate 2":1.42e6}
{"target":"CG32700","dsRNA no.":1,"firefly reporter light, replicate 1":1.87e5,"firefly reporter light, replicate 2":2.22e5,"Renilla control light, replicate 1":2.41e6,"Renilla control light, replicate 2":2.63e6}
{"target":"CG32700","dsRNA no.":2,"firefly reporter light, replicate 1":2.63e5,"firefly reporter light, replicate 2":3.05e5,"Renilla control light, replicate 1":2.99e6,"Renilla control light, replicate 2":2.94e6}
{"target":"CG13907","dsRNA no.":1,"firefly reporter light, replicate 1":7.25e5,"firefly reporter light, replicate 2":6.78e5,"Renilla control light, replicate 1":1.08e6,"Renilla control light, replicate 2":5.82e5}
{"target":"CG13907","dsRNA no.":2,"firefly reporter light, replicate 1":2.19e5,"firefly reporter light, replicate 2":3.22e5,"Renilla control light, replicate 1":1.06e6,"Renilla control light, replicate 2":8.01e5}
{"target":"Vps4","dsRNA no.":1,"firefly reporter light, replicate 1":45628,"firefly reporter light, replicate 2":62248,"Renilla control light, replicate 1":4.81e5,"Renilla control light, replicate 2":4.03e5}
{"target":"Vps4","dsRNA no.":2,"firefly reporter light, replicate 1":5.26e5,"firefly reporter light, replicate 2":6.54e5,"Renilla control light, replicate 1":9.22e5,"Renilla control light, replicate 2":1.15e6}
{"target":"Obp73a","dsRNA no.":1,"firefly reporter light, replicate 1":3.64e5,"firefly reporter light, replicate 2":3.98e5,"Renilla control light, replicate 1":2.82e6,"Renilla control light, replicate 2":2.80e6}
{"target":"CG18469","dsRNA no.":1,"firefly reporter light, replicate 1":4.74e5,"firefly reporter light, replicate 2":4.90e5,"Renilla control light, replicate 1":1.50e6,"Renilla control light, replicate 2":1.71e6}
{"target":"Anp","dsRNA no.":1,"firefly reporter light, replicate 1":4.06e5,"firefly reporter light, replicate 2":3.96e5,"Renilla control light, replicate 1":2.66e6,"Renilla control light, replicate 2":3.42e6}
{"target":"CG3308","dsRNA no.":1,"firefly reporter light, replicate 1":44426,"firefly reporter light, replicate 2":41151,"Renilla control light, replicate 1":4.27e5,"Renilla control light, replicate 2":4.88e5}
{"target":"Trc8","dsRNA no.":1,"firefly reporter light, replicate 1":1.03e5,"firefly reporter light, replicate 2":1.27e5,"Renilla control light, replicate 1":1.13e6,"Renilla control light, replicate 2":8.27e5}
{"target":"Trc8","dsRNA no.":2,"firefly reporter light, replicate 1":5.31e5,"firefly reporter light, replicate 2":6.76e5,"Renilla control light, replicate 1":1.19e6,"Renilla control light, replicate 2":1.70e6}
{"target":"CG43329","dsRNA no.":1,"firefly reporter light, replicate 1":2.34e5,"firefly reporter light, replicate 2":2.51e5,"Renilla control light, replicate 1":1.57e6,"Renilla control light, replicate 2":2.09e6}
{"target":"Rop","dsRNA no.":1,"firefly reporter light, replicate 1":1.43e6,"firefly reporter light, replicate 2":5.44e5,"Renilla control light, replicate 1":1.21e6,"Renilla control light, replicate 2":9.69e5}
{"target":"Rop","dsRNA no.":2,"firefly reporter light, replicate 1":3.17e5,"firefly reporter light, replicate 2":2.26e5,"Renilla control light, replicate 1":8.23e5,"Renilla control light, replicate 2":6.18e5}
{"target":"Cpr47Eg","dsRNA no.":1,"firefly reporter light, replicate 1":2.91e5,"firefly reporter light, replicate 2":3.19e5,"Renilla control light, replicate 1":1.22e6,"Renilla control light, replicate 2":1.95e6}
{"target":"CG15012","dsRNA no.":1,"firefly reporter light, replicate 1":8.45e5,"firefly reporter light, replicate 2":7.33e5,"Renilla control light, replicate 1":9.80e5,"Renilla control light, replicate 2":1.36e6}

Laid out differently: entries from further up.
target | dsRNA no. | firefly reporter light, replicate 1 | firefly reporter light, replicate 2 | Renilla control light, replicate 1 | Renilla control light, replicate 2
CG43329 | 1 | 2.34e5 | 2.51e5 | 1.57e6 | 2.09e6
Rop | 1 | 1.43e6 | 5.44e5 | 1.21e6 | 9.69e5
Rop | 2 | 3.17e5 | 2.26e5 | 8.23e5 | 6.18e5
